In the supplement of paper PMC10849652 one finds log2 fold change data, which are given here for 23 targets.

Amino acid sequences for entries named in this document (tags omitted). A change or cut given only in a name is not applied to a line headed by its entry.
UniProt O75822, whole entry, looked up: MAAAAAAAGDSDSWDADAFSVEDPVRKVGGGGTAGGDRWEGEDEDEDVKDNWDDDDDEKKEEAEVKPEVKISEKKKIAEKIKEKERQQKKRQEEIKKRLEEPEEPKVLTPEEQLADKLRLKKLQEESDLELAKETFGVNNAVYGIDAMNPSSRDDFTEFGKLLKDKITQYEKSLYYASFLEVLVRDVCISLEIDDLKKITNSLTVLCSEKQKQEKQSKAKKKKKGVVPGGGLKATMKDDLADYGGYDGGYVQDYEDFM
UniProt Q8N6R0: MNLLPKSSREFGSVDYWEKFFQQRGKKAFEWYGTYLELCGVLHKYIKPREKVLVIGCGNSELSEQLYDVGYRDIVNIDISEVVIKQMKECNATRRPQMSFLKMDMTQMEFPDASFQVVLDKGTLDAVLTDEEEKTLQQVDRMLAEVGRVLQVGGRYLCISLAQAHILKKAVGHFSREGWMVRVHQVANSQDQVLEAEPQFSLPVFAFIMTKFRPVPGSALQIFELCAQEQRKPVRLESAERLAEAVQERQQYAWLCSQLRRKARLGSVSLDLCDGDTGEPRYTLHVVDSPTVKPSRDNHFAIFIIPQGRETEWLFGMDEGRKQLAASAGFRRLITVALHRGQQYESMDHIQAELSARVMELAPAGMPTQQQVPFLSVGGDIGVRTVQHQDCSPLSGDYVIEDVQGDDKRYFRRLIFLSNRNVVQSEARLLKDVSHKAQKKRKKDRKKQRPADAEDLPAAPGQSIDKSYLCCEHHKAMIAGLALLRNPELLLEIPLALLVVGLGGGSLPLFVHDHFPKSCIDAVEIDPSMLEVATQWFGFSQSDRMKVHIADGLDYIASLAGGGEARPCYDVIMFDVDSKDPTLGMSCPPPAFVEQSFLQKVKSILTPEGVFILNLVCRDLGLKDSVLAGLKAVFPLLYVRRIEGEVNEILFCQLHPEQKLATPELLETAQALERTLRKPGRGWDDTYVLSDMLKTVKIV
UniProt O60739, whole entry, looked up: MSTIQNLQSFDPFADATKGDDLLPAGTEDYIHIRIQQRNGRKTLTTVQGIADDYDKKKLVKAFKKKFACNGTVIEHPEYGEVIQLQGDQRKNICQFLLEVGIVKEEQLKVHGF
UniProt P19525: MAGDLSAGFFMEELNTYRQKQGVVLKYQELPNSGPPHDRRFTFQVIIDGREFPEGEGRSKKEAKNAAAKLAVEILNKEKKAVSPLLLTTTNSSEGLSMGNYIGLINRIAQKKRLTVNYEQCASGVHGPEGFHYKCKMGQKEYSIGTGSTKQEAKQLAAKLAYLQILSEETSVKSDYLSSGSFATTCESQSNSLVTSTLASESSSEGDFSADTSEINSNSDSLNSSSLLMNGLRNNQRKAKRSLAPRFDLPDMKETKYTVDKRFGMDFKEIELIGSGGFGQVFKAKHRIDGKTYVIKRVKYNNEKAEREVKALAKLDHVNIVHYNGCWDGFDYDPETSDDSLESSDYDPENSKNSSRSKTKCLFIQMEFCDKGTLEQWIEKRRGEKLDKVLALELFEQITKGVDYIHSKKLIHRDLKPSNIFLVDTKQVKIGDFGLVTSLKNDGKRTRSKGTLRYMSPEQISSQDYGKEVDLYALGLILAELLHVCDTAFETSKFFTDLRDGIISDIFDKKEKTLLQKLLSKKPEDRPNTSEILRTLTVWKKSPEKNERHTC
UniProt P41091, whole entry, looked up: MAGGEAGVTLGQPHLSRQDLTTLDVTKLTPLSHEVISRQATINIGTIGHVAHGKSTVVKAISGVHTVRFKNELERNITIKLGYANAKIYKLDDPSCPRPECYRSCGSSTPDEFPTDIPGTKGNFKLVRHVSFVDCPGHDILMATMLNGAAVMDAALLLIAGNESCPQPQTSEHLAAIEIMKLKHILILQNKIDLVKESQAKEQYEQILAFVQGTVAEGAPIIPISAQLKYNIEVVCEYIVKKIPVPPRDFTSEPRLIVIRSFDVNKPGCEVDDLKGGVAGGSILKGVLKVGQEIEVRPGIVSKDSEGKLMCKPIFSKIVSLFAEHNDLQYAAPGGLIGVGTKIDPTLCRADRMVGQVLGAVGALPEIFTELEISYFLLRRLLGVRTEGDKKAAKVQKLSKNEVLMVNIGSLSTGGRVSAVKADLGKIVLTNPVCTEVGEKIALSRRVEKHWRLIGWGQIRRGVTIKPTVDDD
UniProt P26641, whole entry, looked up: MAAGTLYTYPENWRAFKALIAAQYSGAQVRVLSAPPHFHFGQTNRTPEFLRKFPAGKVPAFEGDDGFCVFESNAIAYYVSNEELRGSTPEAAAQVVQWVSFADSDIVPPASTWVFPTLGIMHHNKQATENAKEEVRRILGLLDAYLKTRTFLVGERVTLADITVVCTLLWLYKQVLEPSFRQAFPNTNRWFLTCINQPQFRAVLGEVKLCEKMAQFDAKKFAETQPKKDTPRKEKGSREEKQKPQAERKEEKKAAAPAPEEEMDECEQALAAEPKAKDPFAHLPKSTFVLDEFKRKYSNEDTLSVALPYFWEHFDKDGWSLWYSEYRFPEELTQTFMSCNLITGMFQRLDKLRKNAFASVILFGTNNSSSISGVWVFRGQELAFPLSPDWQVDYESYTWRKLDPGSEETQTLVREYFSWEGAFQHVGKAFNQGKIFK
UniProt O60573: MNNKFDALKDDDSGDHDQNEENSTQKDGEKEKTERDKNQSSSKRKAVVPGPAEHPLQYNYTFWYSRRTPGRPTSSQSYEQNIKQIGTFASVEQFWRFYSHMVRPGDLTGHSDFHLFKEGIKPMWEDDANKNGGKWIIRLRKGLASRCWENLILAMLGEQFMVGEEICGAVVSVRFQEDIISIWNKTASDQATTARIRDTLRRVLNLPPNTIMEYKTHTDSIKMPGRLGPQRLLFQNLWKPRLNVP
UniProt O75071: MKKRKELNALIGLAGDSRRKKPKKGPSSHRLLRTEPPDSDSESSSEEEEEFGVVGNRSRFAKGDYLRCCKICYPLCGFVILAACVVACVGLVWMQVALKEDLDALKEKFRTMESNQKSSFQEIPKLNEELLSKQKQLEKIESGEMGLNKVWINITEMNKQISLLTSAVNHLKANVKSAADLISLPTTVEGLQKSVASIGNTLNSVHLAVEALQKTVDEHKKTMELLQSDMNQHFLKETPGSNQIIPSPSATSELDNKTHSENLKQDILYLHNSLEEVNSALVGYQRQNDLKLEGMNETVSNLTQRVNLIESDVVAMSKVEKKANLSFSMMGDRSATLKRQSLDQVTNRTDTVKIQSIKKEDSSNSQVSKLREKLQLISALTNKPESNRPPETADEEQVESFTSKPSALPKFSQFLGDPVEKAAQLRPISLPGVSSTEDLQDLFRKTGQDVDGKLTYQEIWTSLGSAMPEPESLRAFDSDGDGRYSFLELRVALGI
UniProt Q9GZT9: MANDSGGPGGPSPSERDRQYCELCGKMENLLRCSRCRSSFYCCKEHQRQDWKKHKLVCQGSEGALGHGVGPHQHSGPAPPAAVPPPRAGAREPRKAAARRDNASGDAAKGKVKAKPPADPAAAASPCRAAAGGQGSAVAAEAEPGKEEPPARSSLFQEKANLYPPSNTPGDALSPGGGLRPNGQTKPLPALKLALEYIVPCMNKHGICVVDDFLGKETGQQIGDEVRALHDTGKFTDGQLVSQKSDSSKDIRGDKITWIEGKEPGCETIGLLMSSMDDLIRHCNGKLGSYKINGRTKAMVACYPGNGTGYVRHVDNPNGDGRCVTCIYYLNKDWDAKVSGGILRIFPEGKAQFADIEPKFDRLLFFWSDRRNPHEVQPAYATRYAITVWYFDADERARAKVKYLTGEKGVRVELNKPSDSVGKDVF
UniProt Q7Z2Z2: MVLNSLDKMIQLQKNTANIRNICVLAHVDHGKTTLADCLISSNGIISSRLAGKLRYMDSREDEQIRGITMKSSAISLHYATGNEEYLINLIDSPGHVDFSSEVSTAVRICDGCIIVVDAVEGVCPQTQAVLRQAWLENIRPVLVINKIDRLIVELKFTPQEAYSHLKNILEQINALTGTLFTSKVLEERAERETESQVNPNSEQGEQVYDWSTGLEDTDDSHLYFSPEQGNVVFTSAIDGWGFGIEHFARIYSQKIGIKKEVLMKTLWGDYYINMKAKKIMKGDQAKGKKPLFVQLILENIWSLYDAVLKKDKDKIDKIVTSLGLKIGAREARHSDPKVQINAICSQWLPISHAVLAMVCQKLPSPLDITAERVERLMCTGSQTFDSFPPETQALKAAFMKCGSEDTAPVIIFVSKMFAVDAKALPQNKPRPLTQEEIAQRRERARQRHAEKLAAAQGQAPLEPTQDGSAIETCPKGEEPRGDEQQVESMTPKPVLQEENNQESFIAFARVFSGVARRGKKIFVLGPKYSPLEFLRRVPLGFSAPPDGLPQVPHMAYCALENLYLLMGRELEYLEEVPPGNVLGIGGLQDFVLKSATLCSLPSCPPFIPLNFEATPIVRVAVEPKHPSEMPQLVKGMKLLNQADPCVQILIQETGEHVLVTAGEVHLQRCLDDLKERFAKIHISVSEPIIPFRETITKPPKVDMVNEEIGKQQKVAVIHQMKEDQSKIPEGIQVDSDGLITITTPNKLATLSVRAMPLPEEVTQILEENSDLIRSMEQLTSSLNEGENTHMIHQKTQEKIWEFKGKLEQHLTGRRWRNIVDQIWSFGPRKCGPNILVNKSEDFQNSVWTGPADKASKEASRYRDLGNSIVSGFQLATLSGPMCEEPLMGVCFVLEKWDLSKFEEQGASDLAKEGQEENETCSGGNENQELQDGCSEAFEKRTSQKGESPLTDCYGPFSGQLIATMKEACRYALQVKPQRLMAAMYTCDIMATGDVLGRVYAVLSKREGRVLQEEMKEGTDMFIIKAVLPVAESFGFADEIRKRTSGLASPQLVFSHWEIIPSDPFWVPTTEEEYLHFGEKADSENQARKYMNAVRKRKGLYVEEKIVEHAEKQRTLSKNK
UniProt Q92556, whole entry, looked up: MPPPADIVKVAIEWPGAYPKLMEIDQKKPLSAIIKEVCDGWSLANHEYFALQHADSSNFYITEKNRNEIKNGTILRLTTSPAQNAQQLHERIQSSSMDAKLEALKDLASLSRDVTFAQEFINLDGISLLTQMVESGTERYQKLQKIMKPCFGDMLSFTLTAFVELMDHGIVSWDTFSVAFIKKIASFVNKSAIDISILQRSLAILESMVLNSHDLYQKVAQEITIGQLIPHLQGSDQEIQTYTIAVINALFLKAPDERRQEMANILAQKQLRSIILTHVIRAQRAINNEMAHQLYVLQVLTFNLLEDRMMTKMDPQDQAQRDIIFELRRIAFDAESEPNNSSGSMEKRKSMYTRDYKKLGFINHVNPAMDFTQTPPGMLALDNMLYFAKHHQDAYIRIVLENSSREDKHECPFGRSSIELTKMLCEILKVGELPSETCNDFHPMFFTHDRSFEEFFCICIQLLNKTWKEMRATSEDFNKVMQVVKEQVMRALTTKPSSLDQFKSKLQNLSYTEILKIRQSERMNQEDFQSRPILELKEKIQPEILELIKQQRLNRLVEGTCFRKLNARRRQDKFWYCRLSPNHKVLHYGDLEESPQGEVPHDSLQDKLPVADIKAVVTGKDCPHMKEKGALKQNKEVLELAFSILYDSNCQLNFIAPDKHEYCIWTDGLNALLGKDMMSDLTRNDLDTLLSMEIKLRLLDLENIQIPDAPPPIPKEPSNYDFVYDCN
UniProt O14638, whole entry, looked up: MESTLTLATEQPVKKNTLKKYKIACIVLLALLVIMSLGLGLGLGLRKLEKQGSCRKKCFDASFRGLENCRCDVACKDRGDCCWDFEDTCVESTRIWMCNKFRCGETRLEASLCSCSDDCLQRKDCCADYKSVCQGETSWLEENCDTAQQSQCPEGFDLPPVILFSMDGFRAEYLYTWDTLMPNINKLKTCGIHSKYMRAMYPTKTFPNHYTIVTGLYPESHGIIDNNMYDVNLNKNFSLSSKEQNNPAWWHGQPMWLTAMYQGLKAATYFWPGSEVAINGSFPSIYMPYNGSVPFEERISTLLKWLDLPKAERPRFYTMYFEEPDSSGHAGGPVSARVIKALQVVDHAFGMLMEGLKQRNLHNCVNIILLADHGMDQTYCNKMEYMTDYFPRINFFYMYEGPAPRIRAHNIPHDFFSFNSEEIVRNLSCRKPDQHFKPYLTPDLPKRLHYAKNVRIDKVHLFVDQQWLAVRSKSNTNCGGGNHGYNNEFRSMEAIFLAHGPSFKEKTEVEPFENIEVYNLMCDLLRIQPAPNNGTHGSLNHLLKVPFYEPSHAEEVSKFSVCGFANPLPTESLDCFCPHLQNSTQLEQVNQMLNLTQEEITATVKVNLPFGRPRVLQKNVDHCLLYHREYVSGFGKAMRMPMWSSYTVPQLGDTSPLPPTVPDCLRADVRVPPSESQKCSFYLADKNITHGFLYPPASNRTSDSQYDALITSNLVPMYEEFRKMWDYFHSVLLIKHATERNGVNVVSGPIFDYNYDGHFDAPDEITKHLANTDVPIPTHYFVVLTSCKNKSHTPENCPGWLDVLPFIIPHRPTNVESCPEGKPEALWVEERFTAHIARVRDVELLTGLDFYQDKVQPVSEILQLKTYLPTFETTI

This is one part of the list.

Compound in the assay: C1COCCN1CCN2C3=CC=CC=C3N=C2NC(=O)C4=CC(=CC=C4)[N+](=O)[O-] [IRAK-1-4 Inhibitor I]
The experiment in a line: log2 fold change, soluble protein after heating vs DMSO (PISA); higher = thermal stabilisation; K562 cells, 10 uM, 30 min; active = over 0.2 and 3.5 SD of the protein, either way, in both replicates (recomputed). The gist of the method:
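Aliquots of K562 cells (2×10^6 cells/mL) treated with 10 μM compound for 30 min were heated for 3 min over 48°C-58°C. After pooling and extraction in PBS with 0.5% NP-40 at 4°C, soluble protein from a 21,000xg, 90 min spin was quantified by TMTpro 16plex LC-MS/MS with channel sums equalised. Thermal stability is expressed against control samples, from duplicates, as a log2 fold change.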
Consider EIF4G3 isoform 3 (UniProt O43432), for which the log2 fold change is inactive: 0.012.

EIF3J isoform 2 (UniProt O75822): the log2 fold change is inactive: 0.052.

EEF1AKNMT (UniProt Q8N6R0): the log2 fold change is inactive: -0.081.

Regarding EIF2AK1 (UniProt Q9BQI3), the log2 fold change is inactive: -0.016.

Regarding EIF2B4 (UniProt Q9UI10), the log2 fold change is inactive: -0.029.

EIF3G (UniProt K7ER90): the log2 fold change was inactive: -0.077.

With EED, A0A5F9ZI63, the log2 fold change is inactive: -0.032.

For EIF1B (UniProt O60739), the log2 fold change was inactive: 0.106.

Consider EOGT (UniProt Q5NDL2), for which the log2 fold change was inactive: -0.002.

Regarding EIF2AK2 (UniProt P19525), the log2 fold change was inactive: -0.289.

As for ELOVL1 (UniProt Q9BW60), the log2 fold change is inactive: 0.079.

EIF2S3 (UniProt P41091): the log2 fold change is inactive: -0.126.

With EEF1G isoform 2 (UniProt P26641), the log2 fold change is inactive: -0.02.

ELAC1 (UniProt Q9H777): the log2 fold change is inactive: 0.028.

In the case of EIF4E2 (UniProt O60573), the log2 fold change was inactive: 0.064.

EFCAB14 (UniProt O75071): the log2 fold change was inactive: -0.016.

In the case of EGLN1 (UniProt Q9GZT9), the log2 fold change was inactive: 0.016.

In the case of EFEMP1 (UniProt Q12805), the log2 fold change is inactive: 0.055.

As to EFL1 (UniProt Q7Z2Z2), the log2 fold change is inactive: 0.016.

For EIF2AK3 (UniProt Q9NZJ5), the log2 fold change was inactive: -0.136.

For EML5 isoform 5 (UniProt Q05BV3), the log2 fold change is inactive: 0.071.

With ELMO1 (UniProt Q92556), the log2 fold change was inactive: -0.022.

As for ENPP3 (UniProt O14638), the log2 fold change was inactive: 0.051.
